Measured values as given in US20240325469A1, “COMPOSITION FOR PREVENTION OR TREATMENT OF COGNITIVE DYSFUNCTION AND INTESTINAL DYSFUNCTION, COMPRISING LACTOBACILLUS PARACASEI NK112, CUSCUTA AUSTRALIS EXTRACT, AND CUSCUTA JAPONICA EXTRACT” (MTHERA PHARMA CO., LTD., priority 2021, published 2024).

Test system: brain-derived neurotrophic factor (BDNF)
Test: BDNF expression in Escherichia coli-induced model mice (immunoblotting)
Format: in vivo, mouse
Settings: E. coli model mice; donepezil 5 mg/kg

COc1cc2c(cc1OC)C(=O)C(CC1CCN(Cc3ccccc3)CC1)C2 (stereo not shown) [Donepezil, donepezil]
Intensity of BDNF/β-actin: 0.35
